This passage reports binding results from article PMC3924284.

By UniProt entry, the sequences of proteins in these tests, tags left out.
UniProt P0AE72: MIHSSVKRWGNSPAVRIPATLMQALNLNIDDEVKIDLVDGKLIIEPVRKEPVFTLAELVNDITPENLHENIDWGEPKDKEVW

In the assay the target is MazE antitoxin (6x histidine-MazE-3x FLAG, from pBAD24mazE) (E. coli) (UniProt P0AE72). Description: pull-down; purified MazE amine-coupled to Affi-Gel 10 beads; supernatant of the MazF-expressing cell lysate incubated with the beads 5 h at 4 °C; washed with coupling buffer (0.05 M sodium bicarbonate, 0.5 M NaCl, pH 8.3); eluted with 0.2 M glycine HCl pH 2.5; only the target purified.

No constants are given. Whether binding was seen depends on the method and setting. In cells and extracts the contact can be indirect. Some entries that bind do so weakly or less than the wild type.

Turning to “E24A MazF (from UniProt P0AE70 1-111) (enzyme)”, the binding entry is given as “binds”.
